These are yes or no findings as the source states them, for the method shown. Some results given as binding are weak or reduced against the parent protein; the word gives no strength. Sequences can lack the tags named with a protein.

Assay [1] has as its target T1, Human PPARδ-LBD (amino acids 170–441), amino-terminal His-tagged (human) (UniProt Q03181).
T1 sequence: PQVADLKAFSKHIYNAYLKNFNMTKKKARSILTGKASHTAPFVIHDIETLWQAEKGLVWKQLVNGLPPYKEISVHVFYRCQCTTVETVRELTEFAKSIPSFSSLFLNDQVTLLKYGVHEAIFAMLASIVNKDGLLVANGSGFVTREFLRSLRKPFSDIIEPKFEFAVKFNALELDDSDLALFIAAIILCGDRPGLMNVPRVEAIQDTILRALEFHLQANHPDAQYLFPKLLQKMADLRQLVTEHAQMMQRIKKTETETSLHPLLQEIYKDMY
Briefly: FRET or BRET; LANCE Ultra TR-FRET as a1 (same proteins, peptides and buffers); ligand: saroglitazar, concentration series; response as % of the maximal response with the reference agonist; both purified. For orientation: BRET reads energy transfer from a luciferase to a nearby fluorophore.

Assay [2] deals with T1, Human PPARδ-LBD (amino acids 170–441), amino-terminal His-tagged (human). The assay can be described thus: FRET or BRET; LANCE Ultra TR-FRET as a1 (same proteins, peptides and buffers); ligand: pioglitazone, concentration series; response as % of the maximal response with the reference agonist; both purified.
For assay [3], the target named is T2, Human PPARα-LBD (amino acids 200–468), amino-terminal His-tagged (human) (UniProt Q07869).
T2 sequence: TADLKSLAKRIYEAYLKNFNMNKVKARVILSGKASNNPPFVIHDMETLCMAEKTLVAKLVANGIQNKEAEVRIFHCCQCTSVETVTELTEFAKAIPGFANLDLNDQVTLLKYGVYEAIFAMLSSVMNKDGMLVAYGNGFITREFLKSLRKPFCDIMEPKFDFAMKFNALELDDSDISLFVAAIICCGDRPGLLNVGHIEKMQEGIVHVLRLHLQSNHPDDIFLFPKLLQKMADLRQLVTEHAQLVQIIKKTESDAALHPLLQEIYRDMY
The description is as above.

Regarding CPSSHSSLTERHKILHRLLQEGSPS (biotin on the N-terminus (biotin-[residues removed])) [biotin-labeled steroid receptor coactivator 1 (SRC1) peptide (amino acids 676–700)], the binding result in assay [1] is “no binding (condition: with saroglitazar as the ligand)”; in assay [2], “no binding (condition: with pioglitazone as the ligand)”; in assay [3] it was “binds weakly”.

The record behind these values is article PMC10451623 (Antioxidants, 2023).
